Experimental data: PubChem BioAssay AID2685 (National Center for Advancing Translational Sciences (NCATS), 2010)
Some of the results follow. These are further read-outs of the screen, such as a control signal, another cell line or another target. No call is given for them. The list favours compounds with an active or inconclusive main result. The note in brackets gives the kind of curve behind each potency; many fits are weak.

Assay: qHTS Assay for Lipid Storage Modulators in Drosophila S3 Cells;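 as to cell number change: cells counted by Cell Tracker Red CMTPX staining in the red channel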
Conditions: BODIPY lipid droplet fluorescence, 18-24 h; for cell number change: measured here: cell count max response, cells fed with added oleic acid
Procedure, shortened: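 Drosophila S3 cells got compounds at several concentrations plus oleic acid (400 uM solution). Laser-scanning cytometry with 488 nm excitation read lipid droplets at 500-530 nm and cells at 575-640 nm. Percent activity was relative to 20 uM Triacsin C.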

[1] = measured here: cell number channel AC50, cells fed with added oleic acid
[2] = measured here: lipid fluorescence (Fed channel) AC50, cells fed with added oleic acid

SMILES | cell number change [%] | AC50 [1] | AC50 [2]
CS(=O)(=O)N1CCc2cc(C(=O)N3CCOCC3)ccc21 | -20.5 | 0.092 µM [falling, full curve, poor fit] | 0.92 µM [falling, full curve, poor fit]
O=S(=O)(c1ccccc1F)N1CCN(Cc2nc3ccccc3[nH]2)CC1 | -79.7 | 16.4 µM [falling, partial curve] | 10.3 µM [falling, partial curve]
Oc1ccc(Br)cc1/C=N/n1c(COc2ccccc2)n[nH]c1=S | -47.5 | 25.9 µM [falling, single point] | 18.4 µM [falling, partial curve]
O=C(CCc1nnc(Cc2ccc3c(c2)OCO3)o1)N(CC1CCC1)CC1CCCO1 (stereo not given) | -0.645 | 0.58 µM [rising, single point] | 0.731 µM [rising, single point]
O=C(/C=C/c1ccccc1Cl)c1ccccc(=O)c1O | -0.762 |  | 29.1 µM [falling, single point]
Cc1cccc(C)c1NC(=O)NN(C(=O)c1ccccc1)C(C)(C)C | -4.89 |  | 0.00731 µM [rising, full curve, poor fit]
OC(CNCCC1C=Nc2ccccc21)Cn1c2ccc(Cl)cc2c2cc(Cl)ccc21 (stereo not given) | -94 | 13 µM [falling, partial curve] | 16.4 µM [falling, partial curve, poor fit]
CCC(C)c1ccc(S(=O)(=O)N2CCN(S(=O)(=O)c3ccc(NC(C)=O)cc3)CC2)cc1 (stereo not given) | 82.1 | 29.1 µM [rising, single point] | 4.11 µM [falling, full curve]
Fc1ccc(-c2n[nH]c(=S)n2CC2CCCO2)cc1 (stereo not given) | 24.9 |  | 2.91 µM [rising, single point]
CCc1[nH]nc2c1C(Cc1ccccc1)C(C#N)=C(N)O2 (stereo not given) |  | 0.411 µM [falling, partial curve, poor fit] | 29.1 µM [rising, single point]
CCOc1ccc(CCNC(=O)COc2cccc(-n3cnnn3)c2)cc1OCC | -35.4 | 14.6 µM [falling, partial curve] | 13 µM [falling, single point]
Cc1cc([N+](=O)[O-])nn1CCCC(=O)NC(C)c1ccccc1 (stereo not given) | 58.6 | 29.1 µM [rising, single point] | 20.6 µM [rising, single point]
CC1=CC(C)(C)N2C(=O)C3(C(C#N)=C(N)OC4=C3C(=O)CC(C)(C)C4)c3cccc1c32 (stereo not given) | 20.2 |  | 0.411 µM [falling, single point]
Cn1c(CN2CCN(C(=O)c3ccccc3Cl)CC2)nc2cc([N+](=O)[O-])ccc21 | -17.8 | 6.51 µM [rising, partial curve] | 
Cc1cc(C(=O)COC(=O)c2ccc(O)cc2)c(C)n1CC1COc2ccccc2O1 (stereo not given) | -100 | 29.1 µM [falling, partial curve, poor fit] | 13 µM [falling, partial curve]
COc1ccc(C2NC(C(=O)O)CS2)cc1COCC(F)(F)F (stereo not given) | -6.83 | 0.00517 µM [falling, full curve, poor fit] | 

Two neighbouring entries out of the list so far, for reference:
SMILES | cell number change [%] | AC50 [1] | AC50 [2]
O=C(/C=C/c1ccccc1Cl)c1ccccc(=O)c1O | -0.762 |  | 29.1 µM [falling, single point]
Cc1cccc(C)c1NC(=O)NN(C(=O)c1ccccc1)C(C)(C)C | -4.89 |  | 0.00731 µM [rising, full curve, poor fit]

Going on with the list:

SMILES | cell number change [%] | AC50 [1] | AC50 [2]
CCOC(=O)c1c(CN2CCN(C)CC2)oc2ccc(O)cc12 | -113 | 29.1 µM [falling, single point] | 29.1 µM [falling, single point]
Cc1ccc(S(=O)(=O)N2CCCCC2)cc1NC(=O)c1cncc(Br)c1 | -23.7 | 4.11 µM [falling, full curve, poor fit] | 
Nc1cc(=O)[nH]c(SCc2ccc(Cl)cc2)n1 | 9.08 |  | 0.0058 µM [falling, full curve, poor fit]
COC(=O)c1cc(S(=O)(=O)NCC2CCN(Cc3cccc(F)c3)CC2)c[nH]1 | -2.09 |  | 
O=C(CCS(=O)(=O)c1ccc(F)cc1)Nc1nnc(-c2cccs2)o1 |  |  | 6.51 µM [rising, single point]
O=C(c1ccccc1)c1ccc2cc(O)ccc2c1 | -56.8 | 29.1 µM [falling, single point] | 29.1 µM [falling, single point]
CC(C)Cc1cc(C(=O)N2CCCC(CO)(Cc3ccc(F)cc3)C2)no1 (stereo not given) | 22.7 |  | 
CC(=O)c1cccc(NC(=O)Nc2ccccc2)c1 |  | 0.58 µM [falling, single point] | 
O=C(Nc1nnc(Cc2ccccc2)s1)c1cccnc1 | -17.7 | 0.411 µM [falling, full curve, poor fit] | 0.058 µM [falling, full curve, poor fit]
CCn1c(SCCC(=O)O)nnc1-c1cccnc1 | 3.67 | 6.51 µM [falling, single point] | 29.1 µM [falling, single point]
Cc1ccc(NC(=O)C2CCN(S(=O)(=O)c3ccc4c(c3)OCCCO4)CC2)nc1 |  | 6.51 µM [rising, single point] | 4.61 µM [falling, single point]
CC(=O)Cn1c2ccccc2n2nc(CCC(=O)O)c(=O)nc12 | -12.3 | 2.31 µM [falling, partial curve, poor fit] | 1.16 µM [falling, full curve, poor fit]
CSc1ccc(/C=C/C(=O)N2CCN(c3ccccn3)CC2)cc1 | 11.4 |  | 29.1 µM [falling, single point]
CCc1cc2c(C)ccc(C)c2nc1SCC(=O)Nc1c(C)[nH]c(=O)[nH]c1=O | 9.78 |  | 8.2 µM [rising, partial curve]
COc1ccc(CNc2c(C(=O)O)cnc3c2cnn3C)cc1 | -5.98 | 1.84 µM [falling, partial curve] | 
Cn1c(=O)c2c(nc(NCc3ccccc3)n2CCCc2ccccc2)n(C)c1=O | 98.1 | 2.31 µM [rising, full curve] | 4.11 µM [rising, partial curve]
